Earlier results in article PMC7307925, “Human Serum Albumin Binding in a Vial: A Novel UV-pH Titration Method To Assist Drug Design” (Journal of Medicinal Chemistry, 2020).

System: human serum albumin (HSA)
Conditions: 49 (SI ref 1,2); cited from earlier work

SMILES: COC(=O)C1=C(C)NC(C)=C(C(=O)OC)C1c1ccccc1[N+](=O)[O-] [Nifedipine]
- HSA% (HPLC), literature data: 69.5%
